# The other results are listed elsewhere or left out. No rule for the calls is given here. Most values lie within the scatter of the assay; repeated measurements hardly agree.
# Test system: Lgr5 (MarsCy1-Lgr5-EGFP, U2OS)
# Test: cell-surface Lgr5 expression (SCi1 fluorescence, background-subtracted) relative to WT DMSO (fold of DMSO control); higher = more Lgr5 at the plasma membrane
# Conditions: U2OS MarsCy1-Lgr5-EGFP stable; treatment time: overnight; library: Kinase Gold; 20 µM
# Protocol: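 U2OS cells stably expressing MarsCy1-Lgr5-EGFP in 384-well plates were incubated overnight with single-dose compounds. Cell-surface Lgr5 was stained with SCi1 and scanned at 700 nm on a LI-COR Odyssey. Intensity was background-subtracted (parental U2OS) and expressed relative to WT DMSO wells.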
row,SMILES,cell-surface Lgr5 expression
1,COc1ccc(N=Cc2c(O)n(-c3ccccc3)c(=O)[nH]c2=O)cc1,inactive: 0.629
2,O=C1C=Cc2ccccc2/C1=C\c1c(O)[nH]c(=S)[nH]c1=O,inactive: 0.948

# Source: the supplement of paper PMC4683952
